The other results are listed elsewhere or left out.
compound: O=C(CCCCCCC(=O)Nc1ccccc1)NO [vorinostat]; test: log2 fold change, soluble protein after heating vs DMSO (PISA); higher = thermal stabilisation; K562 lysate, 10 uM; active = over 0.2 and 3.5 SD of the protein, either way, in both replicates (recomputed)
Procedure, shortened: (§1)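 Log-two fold change in thermal stability relative to solvent controls is reported from duplicates. For each sample, crude K562 extract from dounce-homogenised pellets in PBS pH 7.4 with 1 mM MgCl2, at 1 mg/mL protein, was treated with 10 μM compound for 30 min. Aliquots heated for 3 min across 48°C-58°C were pooled, brought to 0.5% NP-40 at 4°C and cleared at 21,000xg for 90 min. The supernatant was quantified by TMTpro 16plex LC-MS/MS with channel sums equalised.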

Amino acid sequences for entries named in this document (tags omitted). A change or cut given only in a name is not applied to a line headed by its entry.
UniProt Q92556, whole entry, looked up: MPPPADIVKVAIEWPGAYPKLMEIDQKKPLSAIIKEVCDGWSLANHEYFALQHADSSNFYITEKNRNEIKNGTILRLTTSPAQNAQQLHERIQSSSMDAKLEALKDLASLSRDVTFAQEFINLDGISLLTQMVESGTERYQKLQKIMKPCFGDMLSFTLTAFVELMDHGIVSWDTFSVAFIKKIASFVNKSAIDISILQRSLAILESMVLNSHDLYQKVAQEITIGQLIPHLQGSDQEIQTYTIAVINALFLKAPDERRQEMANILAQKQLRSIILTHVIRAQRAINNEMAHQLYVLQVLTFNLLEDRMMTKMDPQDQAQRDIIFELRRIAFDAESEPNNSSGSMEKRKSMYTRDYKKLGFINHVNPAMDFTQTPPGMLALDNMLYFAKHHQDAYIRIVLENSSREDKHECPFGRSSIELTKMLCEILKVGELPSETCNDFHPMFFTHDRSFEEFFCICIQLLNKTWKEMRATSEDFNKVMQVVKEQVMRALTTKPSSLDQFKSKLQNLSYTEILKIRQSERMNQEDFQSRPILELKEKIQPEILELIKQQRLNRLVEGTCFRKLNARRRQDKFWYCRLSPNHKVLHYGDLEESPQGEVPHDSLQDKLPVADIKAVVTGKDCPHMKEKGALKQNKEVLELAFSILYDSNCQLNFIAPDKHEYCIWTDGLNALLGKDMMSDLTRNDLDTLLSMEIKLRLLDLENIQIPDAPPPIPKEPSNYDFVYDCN
UniProt P09104, whole entry, looked up: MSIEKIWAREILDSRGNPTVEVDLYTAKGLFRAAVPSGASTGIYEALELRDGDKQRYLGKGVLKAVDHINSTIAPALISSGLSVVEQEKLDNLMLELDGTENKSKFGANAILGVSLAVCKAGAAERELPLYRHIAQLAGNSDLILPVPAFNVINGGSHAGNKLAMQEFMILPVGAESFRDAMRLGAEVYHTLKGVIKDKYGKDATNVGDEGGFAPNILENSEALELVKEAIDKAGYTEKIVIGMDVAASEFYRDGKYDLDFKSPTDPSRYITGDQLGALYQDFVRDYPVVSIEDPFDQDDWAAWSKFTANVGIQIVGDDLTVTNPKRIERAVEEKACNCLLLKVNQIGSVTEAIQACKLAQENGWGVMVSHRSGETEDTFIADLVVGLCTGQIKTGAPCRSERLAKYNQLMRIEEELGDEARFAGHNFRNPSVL
UniProt Q15717, whole entry, looked up: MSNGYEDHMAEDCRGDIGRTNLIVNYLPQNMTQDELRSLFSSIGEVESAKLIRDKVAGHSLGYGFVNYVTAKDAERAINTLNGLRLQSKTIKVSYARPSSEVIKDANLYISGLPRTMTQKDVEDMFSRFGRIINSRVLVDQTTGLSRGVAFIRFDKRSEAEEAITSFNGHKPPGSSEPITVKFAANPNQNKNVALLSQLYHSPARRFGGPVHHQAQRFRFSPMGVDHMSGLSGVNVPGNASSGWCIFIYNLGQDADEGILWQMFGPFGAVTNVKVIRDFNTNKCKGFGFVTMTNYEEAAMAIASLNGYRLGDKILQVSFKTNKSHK
UniProt P50402: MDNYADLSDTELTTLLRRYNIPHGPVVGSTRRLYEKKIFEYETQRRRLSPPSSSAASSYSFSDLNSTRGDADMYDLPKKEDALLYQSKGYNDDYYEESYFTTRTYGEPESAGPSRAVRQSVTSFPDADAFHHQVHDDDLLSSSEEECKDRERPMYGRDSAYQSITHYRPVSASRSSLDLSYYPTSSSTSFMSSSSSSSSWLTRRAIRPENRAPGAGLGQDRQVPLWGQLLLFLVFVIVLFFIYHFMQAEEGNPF
UniProt Q92889: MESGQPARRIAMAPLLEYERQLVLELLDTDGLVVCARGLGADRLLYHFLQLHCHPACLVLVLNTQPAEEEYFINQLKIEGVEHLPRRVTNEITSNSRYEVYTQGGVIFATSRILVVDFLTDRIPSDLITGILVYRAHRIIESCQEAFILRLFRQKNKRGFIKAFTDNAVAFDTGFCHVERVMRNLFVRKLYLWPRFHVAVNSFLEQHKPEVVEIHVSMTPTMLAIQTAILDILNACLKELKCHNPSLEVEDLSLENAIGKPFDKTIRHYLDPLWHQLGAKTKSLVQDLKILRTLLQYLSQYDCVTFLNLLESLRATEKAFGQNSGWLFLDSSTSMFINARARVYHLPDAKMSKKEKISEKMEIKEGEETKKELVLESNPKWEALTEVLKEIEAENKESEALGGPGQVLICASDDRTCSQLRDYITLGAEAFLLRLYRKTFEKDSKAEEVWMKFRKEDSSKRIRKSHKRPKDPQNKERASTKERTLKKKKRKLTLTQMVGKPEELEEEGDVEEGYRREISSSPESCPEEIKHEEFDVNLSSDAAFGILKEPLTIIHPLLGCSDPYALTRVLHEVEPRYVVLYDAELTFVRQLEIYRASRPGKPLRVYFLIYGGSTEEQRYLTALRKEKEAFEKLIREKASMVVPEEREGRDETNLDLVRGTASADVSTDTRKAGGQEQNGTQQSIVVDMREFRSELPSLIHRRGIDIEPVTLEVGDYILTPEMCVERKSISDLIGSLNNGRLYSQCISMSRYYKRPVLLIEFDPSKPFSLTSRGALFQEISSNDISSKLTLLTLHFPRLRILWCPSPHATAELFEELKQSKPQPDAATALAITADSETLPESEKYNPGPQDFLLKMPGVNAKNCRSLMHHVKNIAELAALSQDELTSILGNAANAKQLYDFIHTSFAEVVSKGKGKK
UniProt Q9UI10, whole entry, looked up: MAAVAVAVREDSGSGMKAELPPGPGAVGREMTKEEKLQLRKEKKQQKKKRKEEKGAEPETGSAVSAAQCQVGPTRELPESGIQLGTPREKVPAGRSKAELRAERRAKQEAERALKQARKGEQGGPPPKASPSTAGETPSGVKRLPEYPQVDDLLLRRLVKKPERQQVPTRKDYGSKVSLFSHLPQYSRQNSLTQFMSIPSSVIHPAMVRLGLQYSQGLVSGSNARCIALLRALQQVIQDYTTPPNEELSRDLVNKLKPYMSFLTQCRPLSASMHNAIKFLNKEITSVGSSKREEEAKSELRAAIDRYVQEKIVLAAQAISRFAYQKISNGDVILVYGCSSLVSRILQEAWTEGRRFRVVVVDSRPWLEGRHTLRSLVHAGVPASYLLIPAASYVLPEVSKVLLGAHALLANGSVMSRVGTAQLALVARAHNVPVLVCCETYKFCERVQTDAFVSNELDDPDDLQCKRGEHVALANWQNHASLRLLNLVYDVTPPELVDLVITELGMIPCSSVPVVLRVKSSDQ
UniProt Q5NDL2: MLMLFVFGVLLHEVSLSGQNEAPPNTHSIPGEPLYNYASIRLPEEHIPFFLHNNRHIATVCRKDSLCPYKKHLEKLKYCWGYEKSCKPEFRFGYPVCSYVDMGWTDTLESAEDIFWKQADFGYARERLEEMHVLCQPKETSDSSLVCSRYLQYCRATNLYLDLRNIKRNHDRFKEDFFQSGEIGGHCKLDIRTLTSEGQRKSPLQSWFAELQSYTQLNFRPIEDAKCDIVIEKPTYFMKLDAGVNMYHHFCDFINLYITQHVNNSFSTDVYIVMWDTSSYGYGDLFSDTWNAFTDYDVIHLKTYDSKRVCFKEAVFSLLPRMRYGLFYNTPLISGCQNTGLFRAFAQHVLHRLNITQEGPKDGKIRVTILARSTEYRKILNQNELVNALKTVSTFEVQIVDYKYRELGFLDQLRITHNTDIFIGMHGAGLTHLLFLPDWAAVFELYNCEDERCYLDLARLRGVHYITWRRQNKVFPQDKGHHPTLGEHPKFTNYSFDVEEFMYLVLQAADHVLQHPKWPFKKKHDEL
UniProt Q6IA86: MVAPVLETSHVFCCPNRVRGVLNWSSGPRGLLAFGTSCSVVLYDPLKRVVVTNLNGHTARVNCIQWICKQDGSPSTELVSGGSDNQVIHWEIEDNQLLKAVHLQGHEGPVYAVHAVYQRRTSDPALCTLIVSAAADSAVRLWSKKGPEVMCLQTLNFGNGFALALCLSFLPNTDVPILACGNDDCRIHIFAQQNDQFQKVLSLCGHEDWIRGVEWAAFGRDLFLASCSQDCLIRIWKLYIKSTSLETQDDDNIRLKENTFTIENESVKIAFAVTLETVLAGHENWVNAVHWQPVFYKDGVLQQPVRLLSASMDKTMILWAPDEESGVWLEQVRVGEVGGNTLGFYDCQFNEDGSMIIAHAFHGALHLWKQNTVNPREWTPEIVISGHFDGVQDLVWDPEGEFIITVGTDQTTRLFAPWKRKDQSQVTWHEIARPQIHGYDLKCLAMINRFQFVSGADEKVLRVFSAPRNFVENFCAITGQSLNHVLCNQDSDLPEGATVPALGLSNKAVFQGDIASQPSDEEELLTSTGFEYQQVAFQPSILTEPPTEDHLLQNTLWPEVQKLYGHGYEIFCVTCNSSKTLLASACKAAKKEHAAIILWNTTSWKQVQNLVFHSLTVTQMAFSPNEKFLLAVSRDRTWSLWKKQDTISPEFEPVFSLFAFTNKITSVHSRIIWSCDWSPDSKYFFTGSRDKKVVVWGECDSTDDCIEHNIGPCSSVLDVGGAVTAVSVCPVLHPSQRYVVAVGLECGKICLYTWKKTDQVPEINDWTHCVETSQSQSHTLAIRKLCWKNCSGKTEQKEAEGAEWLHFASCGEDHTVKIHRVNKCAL
UniProt Q9Y2J2, whole entry, looked up: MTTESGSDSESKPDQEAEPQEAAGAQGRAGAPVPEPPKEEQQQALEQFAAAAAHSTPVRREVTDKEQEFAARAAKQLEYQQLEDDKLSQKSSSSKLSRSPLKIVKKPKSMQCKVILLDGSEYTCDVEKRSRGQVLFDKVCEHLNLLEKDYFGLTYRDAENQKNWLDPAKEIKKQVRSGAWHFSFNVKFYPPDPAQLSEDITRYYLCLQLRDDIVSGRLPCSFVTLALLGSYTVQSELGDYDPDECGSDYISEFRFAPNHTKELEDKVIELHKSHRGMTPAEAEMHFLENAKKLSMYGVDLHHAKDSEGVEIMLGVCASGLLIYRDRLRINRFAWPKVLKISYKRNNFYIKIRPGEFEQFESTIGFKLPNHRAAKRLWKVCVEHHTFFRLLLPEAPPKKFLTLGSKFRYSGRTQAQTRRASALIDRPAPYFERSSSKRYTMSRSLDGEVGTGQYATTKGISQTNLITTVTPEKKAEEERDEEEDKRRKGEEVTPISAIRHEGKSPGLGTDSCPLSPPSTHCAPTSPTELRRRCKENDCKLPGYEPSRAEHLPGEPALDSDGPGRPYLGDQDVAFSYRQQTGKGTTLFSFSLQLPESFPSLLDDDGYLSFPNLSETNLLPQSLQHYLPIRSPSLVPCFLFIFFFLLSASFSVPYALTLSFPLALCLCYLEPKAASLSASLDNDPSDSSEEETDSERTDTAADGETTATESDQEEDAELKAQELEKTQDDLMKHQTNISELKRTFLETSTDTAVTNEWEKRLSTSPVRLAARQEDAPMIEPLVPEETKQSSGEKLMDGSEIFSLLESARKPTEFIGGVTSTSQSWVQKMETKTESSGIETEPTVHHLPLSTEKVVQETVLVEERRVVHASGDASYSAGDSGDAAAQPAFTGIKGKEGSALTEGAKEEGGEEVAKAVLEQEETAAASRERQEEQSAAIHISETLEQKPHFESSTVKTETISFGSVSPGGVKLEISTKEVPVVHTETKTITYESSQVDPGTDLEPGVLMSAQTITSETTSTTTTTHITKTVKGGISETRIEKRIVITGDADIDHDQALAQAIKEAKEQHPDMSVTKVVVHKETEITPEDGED
UniProt Q15369, whole entry, looked up: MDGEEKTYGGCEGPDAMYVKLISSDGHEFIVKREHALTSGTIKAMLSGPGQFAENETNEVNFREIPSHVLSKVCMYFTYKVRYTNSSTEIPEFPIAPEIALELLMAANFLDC
UniProt P41214: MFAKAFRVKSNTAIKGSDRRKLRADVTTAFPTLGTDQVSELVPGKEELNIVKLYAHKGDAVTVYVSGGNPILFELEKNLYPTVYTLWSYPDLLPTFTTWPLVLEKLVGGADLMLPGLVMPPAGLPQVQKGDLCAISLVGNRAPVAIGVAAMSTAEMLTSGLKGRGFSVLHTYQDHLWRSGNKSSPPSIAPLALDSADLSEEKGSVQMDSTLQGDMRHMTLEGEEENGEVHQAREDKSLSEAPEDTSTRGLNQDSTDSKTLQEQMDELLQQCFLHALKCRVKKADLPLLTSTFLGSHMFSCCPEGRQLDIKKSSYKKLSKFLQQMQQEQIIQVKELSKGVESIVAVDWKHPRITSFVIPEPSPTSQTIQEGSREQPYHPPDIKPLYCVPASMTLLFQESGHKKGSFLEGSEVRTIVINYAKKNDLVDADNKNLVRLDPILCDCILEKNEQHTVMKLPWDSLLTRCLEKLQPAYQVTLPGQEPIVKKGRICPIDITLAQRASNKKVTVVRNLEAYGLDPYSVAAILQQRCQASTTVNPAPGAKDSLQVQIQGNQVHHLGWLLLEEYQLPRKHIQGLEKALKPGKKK

Target	log2 fold change
ELMO1 (UniProt Q92556)	inactive: 0.015
ENO2 (UniProt P09104)	inactive: 0.03
ELAVL1 isoform 2 (UniProt Q15717)	active: -0.326
EMD (UniProt P50402)	inactive: 0.01
ERCC4 (UniProt Q92889)	active: -0.241
EIF2B4 isoform 2 (UniProt Q9UI10)	inactive: -0.209
EOGT (UniProt Q5NDL2)	inactive: 0.104
ELP2 isoform 6 (UniProt Q6IA86)	inactive: -0.122
EIF4H (UniProt Q15056)	inactive: 0.108
EPB41L3 (UniProt Q9Y2J2)	inactive: 0.031
ELOC (UniProt Q15369)	inactive: 0.114
EIF2D (UniProt P41214)	active: -0.385

compound: O=C(O)c1ccc2c(c1)nc(Nc1cccc(Cl)c1)c1ccncc12 [silmitasertib]; test: as above
Procedure, shortened: as §1

Target	log2 fold change
ELOVL6 (UniProt Q9H5J4)	inactive: 0.005
EMC8 (UniProt O43402)	inactive: 0.002
ERCC3 (UniProt P19447)	inactive: 0.04
EIF3D (UniProt O15371)	inactive: 0.035
ERAL1 (UniProt O75616)	inactive: 0.044
EIF4A2 isoform 2 (UniProt Q14240)	inactive: 0.023
ERC1 (UniProt X6RLX0)	inactive: -0.011
EMG1 (UniProt Q92979)	inactive: 0.04
ENPP3 (UniProt O14638)	inactive: -0.077
EIF2S3 (UniProt P41091)	inactive: -0.013
EIF2B2 (UniProt P49770)	inactive: 0.03
ELMO2 (UniProt Q96JJ3)	inactive: 0.057
EPB41 (UniProt P11171)	inactive: 0.007
EIF2AK4 (UniProt Q9P2K8)	inactive: 0.017
EP400P1 isoform 6 (UniProt Q6ZTU2)	inactive: -0.03
ELMOD2 (UniProt Q8IZ81)	inactive: 0.031
ELAVL4 (UniProt P26378)	inactive: -0.046
ENGASE (UniProt Q8NFI3)	inactive: 0.05

Target	log2 fold change
EPM2AIP1 (UniProt Q7L775)	inactive: 0.012
ELF1 (UniProt P32519)	inactive: 0.009
EIF4E2 (UniProt O60573)	inactive: -0.011
EIF5A isoform 2 (UniProt P63241)	inactive: -0.007
EIF4EBP2 (UniProt Q13542)	inactive: -0.067
ELMO1 (UniProt Q92556)	inactive: -0.017
ENO2 (UniProt P09104)	inactive: -0.014
ELAVL1 isoform 2 (UniProt Q15717)	inactive: 0.059
EMD (UniProt P50402)	inactive: 0.024
ERCC4 (UniProt Q92889)	inactive: 0.002
EIF2B4 isoform 2 (UniProt Q9UI10)	inactive: 0.013
EOGT (UniProt Q5NDL2)	inactive: 0.055
ELP2 isoform 6 (UniProt Q6IA86)	inactive: -0.004
EIF4H (UniProt Q15056)	inactive: -0.01
EPB41L3 (UniProt Q9Y2J2)	inactive: 0.024
ELOC (UniProt Q15369)	inactive: -0.07
EIF2D (UniProt P41214)	inactive: 0.032

compound: O=C1NC(=O)C(c2cnc3ccccn23)=C1c1cn2c3c(cc(F)cc13)CN(C(=O)N1CCCCC1)CC2; test: as above
Procedure, shortened: as §1

Target	log2 fold change
ELOVL6 (UniProt Q9H5J4)	inactive: 0.043
EMC8 (UniProt O43402)	inactive: -0.017
ERCC3 (UniProt P19447)	inactive: -0.016
EIF3D (UniProt O15371)	inactive: 0.026
ERAL1 (UniProt O75616)	inactive: -0.044
EIF4A2 isoform 2 (UniProt Q14240)	inactive: -0.022
ERC1 (UniProt X6RLX0)	inactive: -0.015
EMG1 (UniProt Q92979)	inactive: -0.005
ENPP3 (UniProt O14638)	inactive: 0.009
EIF2S3 (UniProt P41091)	inactive: -0.006
EIF2B2 (UniProt P49770)	inactive: -0.018
ELMO2 (UniProt Q96JJ3)	inactive: 0.203
EPB41 (UniProt P11171)	inactive: -0.034
EIF2AK4 (UniProt Q9P2K8)	inactive: 0.004
EP400P1 isoform 6 (UniProt Q6ZTU2)	inactive: 0.028
ELMOD2 (UniProt Q8IZ81)	inactive: 0.003
ELAVL4 (UniProt P26378)	inactive: 0.004
ENGASE (UniProt Q8NFI3)	inactive: -0.013

Target	log2 fold change
EPM2AIP1 (UniProt Q7L775)	inactive: -0.014
ELF1 (UniProt P32519)	inactive: -0.043
EIF4E2 (UniProt O60573)	inactive: 0.038
EIF5A isoform 2 (UniProt P63241)	inactive: 0.025
EIF4EBP2 (UniProt Q13542)	inactive: 0.061
ELMO1 (UniProt Q92556)	inactive: -0.044
ENO2 (UniProt P09104)	inactive: 0.001
ELAVL1 isoform 2 (UniProt Q15717)	inactive: -0.051
EMD (UniProt P50402)	inactive: -0.023
ERCC4 (UniProt Q92889)	inactive: -0.065
EIF2B4 isoform 2 (UniProt Q9UI10)	inactive: -0.002
EOGT (UniProt Q5NDL2)	inactive: -0.046
ELP2 isoform 6 (UniProt Q6IA86)	inactive: -0.035
EIF4H (UniProt Q15056)	inactive: -0.006
EPB41L3 (UniProt Q9Y2J2)	inactive: -0.007
ELOC (UniProt Q15369)	inactive: 0.077
EIF2D (UniProt P41214)	inactive: 0.04

Source: the supplement of paper PMC10849652
